Reference: PubChem BioAssay AID192 (DTP/NCI, 2004)
The list shows only some results of the screen, not a fair sample: it gathers tests that were run many times, whatever their T/C, doses with no T/C, and many T/C values between a quarter and a half above the control. Other doses and runs of a compound stand elsewhere. T/C is the treated group as % of the vehicle group. Some doses have a count of surviving animals in place of a T/C: the source holds a T/C of zero for them, seemingly a mark for toxic or unscored doses. Some doses without a T/C left all or most animals alive at the check, yet need not have been tolerated: survival well below the control is almost never listed, so the zero probably covers shortened survival too. Survivors were counted at the toxicity check, usually on the fifth day, unless a day is given; later deaths do not show. Schedules are NCI's codes, read here as Q, the interval in days (D) or hours (H), X, the number of doses. For survival time, this PubChem deposit counts one and a half times the control or more as active, and values a quarter to a half above the control carry no call in these data; other NCI protocols may use other cut-offs. Some T/C values carry the count of animals alive at the toxicity check (mostly the fifth day); without a count, all were alive then.

Test system: BDF1 mice, B16 melanoma ip, median survival T/C
Assay: NCI In Vivo Anticancer Drug Screen. Data for tumor model B16 Melanoma (intraperitoneal) in B6D2F1 (BDF1) mice
Details: T/C endpoint: median survival time, higher T/C = longer survival
Outline: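 Mice with transplantable tumors; drug vs vehicle groups; endpoint survival or tumor size; value = T/C.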

[1] = dose: 25.0 mg/kg/injection, schedule: Q01DX009 (ip), vehicle: Klucel (hydroxypropylcellulose) (HPC)
[2] = dose: 50.0 mg/kg/injection, schedule: Q01DX009 (ip), vehicle: Klucel (hydroxypropylcellulose) (HPC)
[3] = dose: 100.0 mg/kg/injection, schedule: Q01DX009 (ip), vehicle: Klucel (hydroxypropylcellulose) (HPC)
[4] = dose: 400.0 mg/kg/injection, schedule: Q01DX009 (ip), vehicle: Klucel (hydroxypropylcellulose) (HPC)
[5] = dose: 6.25 mg/kg/injection, schedule: Q01DX009 (ip), vehicle: saline
[6] = dose: 12.0 mg/kg/injection, schedule: Q01DX009 (ip), vehicle: saline with Tween-80
[7] = dose: 200.0 mg/kg/injection, schedule: Q01DX009 (ip), vehicle: Klucel (hydroxypropylcellulose) (HPC)
[8] = dose: 100.0 mg/kg/injection, schedule: Q01DX009 (ip), vehicle: saline with Tween-80
[9] = dose: 200.0 mg/kg/injection, schedule: Q01DX009 (ip), vehicle: saline with Tween-80
[10] = dose: 50.0 mg/kg/injection, schedule: Q01DX009 (ip), vehicle: saline with Tween-80
[11] = dose: 400.0 mg/kg/injection, schedule: Q01DX009 (ip), vehicle: saline with Tween-80

O=[N+]([O-])/C=C/c1ccc([N+](=O)[O-])cc1Cl
survivor count (dose: 1.5 mg/kg/injection, schedule: Q01DX009 (ip), vehicle: Klucel (hydroxypropylcellulose) (HPC)): 10 of 10 | survivor count (dose: 3.0 mg/kg/injection, schedule: Q01DX009 (ip), vehicle: Klucel (hydroxypropylcellulose) (HPC)): 10 of 10 | survivor count [1]: 10 of 10 | survivor count [2]: 10 of 10 | survivor count [3]: 7 of 10

CCCCCCCCCC(=O)CCCCCC
survivor count [4]: 10 of 10

CN1CCC(C=C2c3ccccc3CCc3ccccc32)C1 (stereo not drawn)
survivor count [5]: 10 of 10 | survivor count (dose: 12.5 mg/kg/injection, schedule: Q01DX009 (ip), vehicle: saline): 10 of 10

CCOc1ccc(C(C)c2cc3c(cc2OC)OCO3)cc1 (stereo not drawn)
T/C (dose: 50.0 mg/kg/injection, schedule: Q01DX009 (ip), vehicle: distilled water + Tween-80): 125 % of control | T/C (dose: 100.0 mg/kg/injection, schedule: Q01DX009 (ip), vehicle: distilled water + Tween-80): 132 % of control | T/C (dose: 200.0 mg/kg/injection, schedule: Q01DX009 (ip), vehicle: distilled water + Tween-80): 142 % of control [9 of 10 alive]

CCOCCN1CCN(CCCN2c3ccccc3Sc3ccc(C(F)(F)F)cc32)CC1
survivor count (dose: 0.78 mg/kg/injection, schedule: Q01DX009 (ip), vehicle: saline): 10 of 10 | survivor count (dose: 1.56 mg/kg/injection, schedule: Q01DX009 (ip), vehicle: saline): 9 of 10 | survivor count (dose: 3.12 mg/kg/injection, schedule: Q01DX009 (ip), vehicle: saline): 9 of 10 | survivor count [5]: 6 of 10

Nc1ccc(C(=O)O)c(O)c1
survivor count (dose: 4.7 mg/kg/injection, schedule: Q01DX009 (ip), vehicle: saline with Tween-80): 10 of 10

Nc1nc(-c2ccccc2N=NN2CCCC2)nc2ccccc12
survivor count [3]: 8 of 10

O=c1cc(-c2ccccc2)[nH]c(-c2ccccc2)c1
T/C (dose: 6.25 mg/kg/injection, schedule: Q01DX009 (ip), vehicle: saline with Tween-80): 125 % of control | survivor count [6]: 10 of 10 | T/C (dose: 12.5 mg/kg/injection, schedule: Q01DX009 (ip), vehicle: saline with Tween-80): 140 % of control | T/C (dose: 25.0 mg/kg/injection, schedule: Q01DX009 (ip), vehicle: saline with Tween-80): 128 % of control

COc1cc2c[n+](C)c3c4cc(OC)c(OC)cc4ccc3c2cc1OC
survivor count [7]: 4 of 10 | survivor count [4]: 6 of 10

O=P(NC12CC3CC(CC(C3)C1)C2)(N1CC1)N1CC1
survivor count (dose: 10.0 mg/kg/injection, schedule: Q01DX009 (ip), vehicle: Klucel (hydroxypropylcellulose) (HPC)): 10 of 10 | survivor count (dose: 15.0 mg/kg/injection, schedule: Q01DX009 (ip), vehicle: Klucel (hydroxypropylcellulose) (HPC)): 9 of 10

C=CCOP(=O)(N1CC1C)N1CC1C (stereo not drawn)
survivor count (dose: 100.0 mg/kg/injection, schedule: Q01DX009 (ip), vehicle: saline): 10 of 10 | survivor count (dose: 200.0 mg/kg/injection, schedule: Q04DX003 (ip), vehicle: saline): 10 of 10

CC(=O)CC(C)=O.CC(=O)CC(C)=O.O=N[O-].O=N[O-].[Co]
survivor count [8]: 10 of 10 | survivor count [9]: 0 of 10

COc1ccc(NC(=O)Nc2cccc(Cl)c2C)cc1
survivor count (dose: 75.0 mg/kg/injection, schedule: Q01DX009 (ip), vehicle: saline with Tween-80): 10 of 10

CN(C)C1CCCCC1
survivor count [1]: 8 of 10

O=C1c2ccccc2C(=O)N1CCC[P+](c1ccccc1)(c1ccccc1)c1ccccc1
survivor count [1]: 2 of 10

CCc1ccccc1NC(=O)Nc1ccccc1OC
survivor count [3]: 10 of 10 | survivor count [7]: 10 of 10 | survivor count [4]: 10 of 10

CN1C(=O)C(=Cc2ccc(O)cc2)C(=O)N(C)C1=O
survivor count [10]: 10 of 10 | survivor count [8]: 10 of 10 | survivor count [9]: 10 of 10 | survivor count [11]: 9 of 10

CCOC(=O)c1ccc(OC(=O)Nc2ccc(Cl)cc2)cc1
survivor count [11]: 10 of 10

CC1(C)N=C(N)N=C(N)N1c1cc(Cl)ccc1Cl
survivor count [2]: 6 of 10 | survivor count [3]: 0 of 10

CSCCC(NC(=O)CN(C)C(=O)OCc1ccccc1)C(=O)O (stereo not drawn)
survivor count [9]: 3 of 10 | survivor count [11]: 0 of 10

COc1cc2nc3cc([N+](=O)[O-])ccc3c(Cl)c2cc1OC
survivor count [7]: 9 of 10

COc1ccc(NC(=O)Oc2ccccc2-c2ccccc2)cc1
survivor count [8]: 10 of 10 | survivor count [9]: 10 of 10 | survivor count [11]: 10 of 10

CCCCCCCCN(C)N=Nc1ccc(Cl)cc1C(=O)O
survivor count [9]: 10 of 10

Cc1ccc2c(C)c3c(ccc4ccccc43)c[n+]2c1
survivor count (dose: 1.25 mg/kg/injection, schedule: Q01DX009 (ip), vehicle: saline with Tween-80): 6 of 6 | survivor count (dose: 10.0 mg/kg/injection, schedule: Q01DX009 (ip), vehicle: saline with Tween-80): 4 of 6 | survivor count (dose: 20.0 mg/kg/injection, schedule: Q01DX009 (ip), vehicle: saline with Tween-80): 0 of 6

O=C1c2ccccc2C(=O)N1CC[P+](c1ccccc1)(c1ccccc1)c1ccccc1
survivor count (dose: 25.0 mg/kg/injection, schedule: Q01DX009 (ip), vehicle: water): 3 of 10 | survivor count (dose: 50.0 mg/kg/injection, schedule: Q01DX009 (ip), vehicle: water): 0 of 10 | survivor count (dose: 100.0 mg/kg/injection, schedule: Q01DX009 (ip), vehicle: water): 0 of 10

CCCCn1cnc2c(=S)nc[nH]c21
survivor count [10]: 6 of 6 | survivor count [8]: 6 of 6 | survivor count [9]: 6 of 6 | survivor count [11]: 6 of 6

CCOC(=O)C(C(=O)OCC)=C(C)C
T/C (dose: 400.0 mg/kg/injection, schedule: Q01DX009 (ip), vehicle: saline): 125 % of control

C[C@]12C=CC(=O)C=C1CC[C@@H]1[C@@H]2[C@@H](O)C[C@@]2(C)[C@H]1CC[C@]2(O)C(=O)CO
survivor count (dose: 40.0 mg/kg/injection, schedule: Q02DX009 (ip), vehicle: Klucel (hydroxypropylcellulose) (HPC)): 10 of 10 | survivor count (dose: 80.0 mg/kg/injection, schedule: Q02DX009 (ip), vehicle: Klucel (hydroxypropylcellulose) (HPC)): 10 of 10 | survivor count (dose: 640.0 mg/kg/injection, schedule: Q02DX009 (ip), vehicle: Klucel (hydroxypropylcellulose) (HPC)): 10 of 10

CCC(CC)OCCN1CCN(CCCN2c3ccccc3Sc3ccc(C(F)(F)F)cc32)CC1
survivor count (dose: 2.0 mg/kg/injection, schedule: Q01DX009 (ip), vehicle: saline with Tween-80): 10 of 10 | survivor count (dose: 4.0 mg/kg/injection, schedule: Q01DX009 (ip), vehicle: saline with Tween-80): 6 of 10

CN1C(=O)NC(c2ccc(Cl)cc2)(c2ccc(Cl)cc2)C1=O
T/C (dose: 3.12 mg/kg/injection, schedule: Q01DX009 (ip), vehicle: water): 127 % of control | survivor count (dose: 400.0 mg/kg/injection, schedule: Q01DX009 (ip), vehicle: distilled water + Tween-80): 7 of 10

COc1c2occc2cc2ccc(=O)oc12
T/C [10]: 125 % of control [9 of 10 alive] | survivor count (dose: 256.0 mg/kg/injection, schedule: Q01DX009 (ip), vehicle: saline with Tween-80): 6 of 10

COc1cc(C(=O)O)c(Br)cc1C
survivor count (dose: 400.0 mg/kg/injection, schedule: Q04DX003 (ip), vehicle: Klucel (hydroxypropylcellulose) (HPC)): 10 of 10

O=[N+]([O-])/C=C/c1ccc(Cl)cc1Cl
survivor count [2]: 10 of 10 | survivor count [3]: 10 of 10 | survivor count [7]: 0 of 10

O=C1C(=O)c2ccccc2-c2ccccc21.O=C1C(=O)c2ccccc2-c2ccccc21.[Hg]
survivor count (dose: 6.0 mg/kg/injection, schedule: Q01DX009 (ip), vehicle: saline with Tween-80): 10 of 10 | survivor count [6]: 4 of 10

NC(N)=NCCCOc1ccccc1
survivor count [3]: 7 of 10 | survivor count [7]: 0 of 10 | survivor count [4]: 0 of 10
